Results taken from the supplement of paper PMC7661543.
± gives the standard deviation of the averaged measurements. Differences between knockout arms are mostly noise.

Assays:
[1] = test system: HCC-38; assay: relative cell number vs DMSO control (72 h) (% of DMSO); higher = less growth inhibition (more cells)
Experimental: (§1)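 QMAP-Seq: a pool of 5 breast cancer cell lines (ZR-75-1, SKBR3, HCC-38, MDA-MB-231, BT-20), each carrying 12 doxycycline-inducible Cas9 sgRNA perturbations (11 knockouts plus non-targeting sgNT), was treated with compounds for 72 h at four 10-fold doses (10 nM-10 uM or 1 nM-1 uM range). Barcodes were amplified and sequenced, and cell number was interpolated from 293T spike-in standard curves. The result is expressed as % of the median of DMSO wells. Two biological replicates.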

[2] = test system: MDA-MB-231; assay: as above
Experimental: as §1

[3] = sgRNA knockout: sgATF3, 1000 nM
[4] = sgRNA knockout: sgATF3, 10000 nM
[5] = sgRNA knockout: sgATF4, 1000 nM
[6] = sgRNA knockout: sgATF4, 10000 nM
[7] = sgRNA knockout: sgATF6, 1000 nM
[8] = sgRNA knockout: sgATF6, 10000 nM
[9] = sgRNA knockout: sgATG7, 1000 nM
[10] = sgRNA knockout: sgATG7, 10000 nM
[11] = sgRNA knockout: sgERN1, 1000 nM
[12] = sgRNA knockout: sgERN1, 10000 nM
[13] = sgRNA knockout: sgHSF1, 1000 nM
[14] = sgRNA knockout: sgHSF1, 10000 nM
[15] = sgRNA knockout: sgHSF2, 1000 nM
[16] = sgRNA knockout: sgHSF2, 10000 nM
[17] = sgRNA knockout: sgKEAP1, 100 nM
[18] = sgRNA knockout: sgKEAP1, 1000 nM
[19] = sgRNA knockout: sgKEAP1, 10000 nM
[20] = sgRNA knockout: sgNFE2L2, 10 nM
[21] = sgRNA knockout: sgNFE2L2, 100 nM
[22] = sgRNA knockout: sgNFE2L2, 1000 nM
[23] = sgRNA knockout: sgNFE2L2, 10000 nM
[24] = sgRNA knockout: sgSLC35F2, 10 nM
[25] = sgRNA knockout: sgSLC35F2, 100 nM
[26] = sgRNA knockout: sgSLC35F2, 1000 nM
[27] = sgRNA knockout: sgSLC35F2, 10000 nM
[28] = sgRNA knockout: sgXBP1, 1000 nM
[29] = sgRNA knockout: sgXBP1, 10000 nM

## Cc1cc(C2CCCCC2)n(O)c(=O)c1 [Ciclopirox]
[1]; sgRNA knockout: sgATF3, 10 nM
  relative cell number: 82.9 ± 4.3
[1]; sgRNA knockout: sgATF3, 100 nM
  relative cell number: 104 ± 2.9
[1]; [3]
  relative cell number: 71.5 ± 0.85
[1]; [4]
  relative cell number: 15.6 ± 0.11
[1]; sgRNA knockout: sgATF4, 10 nM
  relative cell number: 77.2 ± 14
[1]; sgRNA knockout: sgATF4, 100 nM
  relative cell number: 104 ± 7.1
[1]; [5]
  relative cell number: 75.8 ± 4.4
[1]; [6]
  relative cell number: 16.5 ± 1.8
[1]; sgRNA knockout: sgATF6, 10 nM
  relative cell number: 91.6 ± 11
[1]; sgRNA knockout: sgATF6, 100 nM
  relative cell number: 96.9 ± 4.4
[1]; [7]
  relative cell number: 77.9 ± 2
[1]; [8]
  relative cell number: 15.1 ± 4
[1]; sgRNA knockout: sgATG7, 10 nM
  relative cell number: 85.3 ± 15
[1]; sgRNA knockout: sgATG7, 100 nM
  relative cell number: 97.97 ± 0.7
[1]; [9]
  relative cell number: 73.5 ± 5.6
[1]; [10]
  relative cell number: 12.3 ± 0.6
[1]; sgRNA knockout: sgERN1, 10 nM
  relative cell number: 84.2 ± 11
[1]; sgRNA knockout: sgERN1, 100 nM
  relative cell number: 103 ± 6.3
[1]; [11]
  relative cell number: 74.7 ± 8.6
[1]; [12]
  relative cell number: 18.3 ± 1.3
[1]; sgRNA knockout: sgHSF1, 10 nM
  relative cell number: 102 ± 1.3
[1]; sgRNA knockout: sgHSF1, 100 nM
  relative cell number: 101 ± 14
[1]; [13]
  relative cell number: 67.1 ± 1.8
[1]; [14]
  relative cell number: 16.3 ± 0.85
[1]; sgRNA knockout: sgHSF2, 10 nM
  relative cell number: 91.4 ± 4.2
[1]; sgRNA knockout: sgHSF2, 100 nM
  relative cell number: 97.6 ± 3
[1]; [15]
  relative cell number: 71.8 ± 6.7
[1]; [16]
  relative cell number: 16.6 ± 2.3
[1]; sgRNA knockout: sgKEAP1, 10 nM
  relative cell number: 103 ± 2.8
[1]; [17]
  relative cell number: 98.7 ± 13
[1]; [18]
  relative cell number: 54.6 ± 12
[1]; [19]
  relative cell number: 11.1 ± 4.2
[1]; [20]
  relative cell number: 73.6 ± 16
[1]; [21]
  relative cell number: 98.7 ± 5.6
[1]; [22]
  relative cell number: 70.3 ± 10
[1]; [23]
  relative cell number: 16.2 ± 2.4
[1]; [24]
  relative cell number: 82.1 ± 6.3
[1]; [25]
  relative cell number: 106 ± 9.3
[1]; [26]
  relative cell number: 78.2 ± 6.7
[1]; [27]
  relative cell number: 16.9 ± 2.8
[1]; sgRNA knockout: sgXBP1, 10 nM
  relative cell number: 81.6 ± 9.2
[1]; sgRNA knockout: sgXBP1, 100 nM
  relative cell number: 108 ± 1.6
[1]; [28]
  relative cell number: 75.8 ± 10
[1]; [29]
  relative cell number: 13.6 ± 1.7
[2]; sgRNA knockout: sgATF3, 10 nM
  relative cell number: 97.7 ± 1.8
[2]; sgRNA knockout: sgATF3, 100 nM
  relative cell number: 110 ± 25
[2]; [3]
  relative cell number: 67.6 ± 20
[2]; [4]
  relative cell number: 11.5 ± 3.9
[2]; sgRNA knockout: sgATF4, 10 nM
  relative cell number: 100 ± 11
[2]; sgRNA knockout: sgATF4, 100 nM
  relative cell number: 85.5 ± 6.1
[2]; [5]
  relative cell number: 57.2 ± 38
[2]; [6]
  relative cell number: 17 ± 3.2
[2]; sgRNA knockout: sgATF6, 10 nM
  relative cell number: 92.9 ± 5.2
[2]; sgRNA knockout: sgATF6, 100 nM
  relative cell number: 66.7 ± 21
[2]; [7]
  relative cell number: 66.4 ± 5
[2]; [8]
  relative cell number: 19.5 ± 0.51
[2]; sgRNA knockout: sgATG7, 10 nM
  relative cell number: 105.9 ± 0.29
[2]; sgRNA knockout: sgATG7, 100 nM
  relative cell number: 98.9 ± 11
[2]; [9]
  relative cell number: 51.5 ± 0.96
[2]; [10]
  relative cell number: 13.9 ± 5.3
[2]; sgRNA knockout: sgERN1, 10 nM
  relative cell number: 85.4 ± 9.3
[2]; sgRNA knockout: sgERN1, 100 nM
  relative cell number: 96.5 ± 5.5
[2]; [11]
  relative cell number: 69 ± 17
[2]; [12]
  relative cell number: 16.7 ± 4.5
[2]; sgRNA knockout: sgHSF1, 10 nM
  relative cell number: 79.1 ± 12
[2]; sgRNA knockout: sgHSF1, 100 nM
  relative cell number: 91.4 ± 20
[2]; [13]
  relative cell number: 56.3 ± 12
[2]; [14]
  relative cell number: 14.4 ± 3.6
[2]; sgRNA knockout: sgHSF2, 10 nM
  relative cell number: 110 ± 23
[2]; sgRNA knockout: sgHSF2, 100 nM
  relative cell number: 83.7 ± 4.8
[2]; [15]
  relative cell number: 70.3 ± 23
[2]; [16]
  relative cell number: 16.1 ± 2.4
[2]; sgRNA knockout: sgKEAP1, 10 nM
  relative cell number: 89.6 ± 9.6
[2]; [17]
  relative cell number: 122 ± 22
[2]; [18]
  relative cell number: 56 ± 12
[2]; [19]
  relative cell number: 15.8 ± 0.23
[2]; [20]
  relative cell number: 78 ± 9.6
[2]; [21]
  relative cell number: 105 ± 16
[2]; [22]
  relative cell number: 58.4 ± 0.24
[2]; [23]
  relative cell number: 16.3 ± 3.8
[2]; [24]
  relative cell number: 94.6 ± 14
[2]; [25]
  relative cell number: 84.5 ± 7.4
[2]; [26]
  relative cell number: 59.2 ± 15
[2]; [27]
  relative cell number: 14.8 ± 2.7
[2]; sgRNA knockout: sgXBP1, 10 nM
  relative cell number: 85.4 ± 3.9
[2]; sgRNA knockout: sgXBP1, 100 nM
  relative cell number: 72.2 ± 7
[2]; [28]
  relative cell number: 54.4 ± 7.6
[2]; [29]
  relative cell number: 13.5 ± 1.5
